Source: paper PMC7819943, “Rice protein-binding microarrays: a tool to detect cis-acting elements near promoter regions in rice”
The other results are listed elsewhere or left out.

Chains of the proteins cited; added tags and fusions are not shown.
UniProt Q0JBA9, entry or part of it: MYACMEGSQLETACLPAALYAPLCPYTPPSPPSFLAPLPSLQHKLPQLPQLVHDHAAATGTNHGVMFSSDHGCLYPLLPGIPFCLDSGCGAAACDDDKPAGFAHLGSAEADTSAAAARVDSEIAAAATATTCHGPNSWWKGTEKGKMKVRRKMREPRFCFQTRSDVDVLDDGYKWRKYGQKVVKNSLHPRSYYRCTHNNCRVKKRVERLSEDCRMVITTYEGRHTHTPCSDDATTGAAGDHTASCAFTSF

Target: OsWRKY34 (Oryza sativa, UniProt Q0JBA9 1-250)
Experiment: protein-binding microarray (RPBM); PBS, 2% BSA, 51.3 ng/ul salmon testes DNA, 50 uM zinc acetate, 200 nM TF, 25 C, 1 h; high values mean tight binding
Settings: protein: recombinant; tags: N-terminal polyhistidine and DsRed monomer fusion (pET32a); label: CyDye5-dUTP incorporated in the synthesized complementary strand; 3' TTTTT single-stranded linker to array surface; dsDNA, one strand shown
Outline: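 For the binding signal, per-feature fluorescence intensity was read in arbitrary units on an Axon 4000B scanner. Before scanning, a 2% BSA-blocked custom Agilent array made double-stranded with Cy5-dUTP was washed after 1 h at 25 °C with 200 nM protein and 50 µM zinc acetate. The proteins were Ni–NTA-purified transcription factors with N-terminal polyhistidine and DsRed fusions, expressed in E. coli BL21-CodonPlus.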

Sequence | binding signal
AACTCACACACACGCTAATCAGCTCAACTCTTACAGCCTACGGAGTCACCTAGTGCAG | 9450 fluorescence intensity (a.u.)
TCCCTCTCTCTCTCTCTCTTCGTTTCCGCGCGCGCGCGCGCGGAGTCACCTAGTGCAG | 9340 fluorescence intensity (a.u.)
CCCCGCGCCTTGATATTTGCAACTGCAAATTTGTCTATATCGGAGTCACCTAGTGCAG | 9780 fluorescence intensity (a.u.)
ACAATACCTGCTAGCTCATCTCCATCCTCTCTCACCACCACGGAGTCACCTAGTGCAG | 8530 fluorescence intensity (a.u.)
AGGGGTATGTTTAGTTTGCGTCAAAATTGGAAGTTTTGTTCGGAGTCACCTAGTGCAG | 9040 fluorescence intensity (a.u.)
TCTTCTGGTCATCTCATCTGGTCATATGGGGTCTCGTTTGCGGAGTCACCTAGTGCAG | 13400 fluorescence intensity (a.u.)
TGTCTACTAGGTGTCATTGTCAATCTGTCATTGCACAACTCGGAGTCACCTAGTGCAG | 8340 fluorescence intensity (a.u.)
CTTTAATCCTTAGCCCCAATCAGCGCCATACTGTTGTACTCGGAGTCACCTAGTGCAG | 9660 fluorescence intensity (a.u.)
CACCATGTAAGTTTCTCCTCACTTTTTTTTCCCTCTTTGACGGAGTCACCTAGTGCAG | 9540 fluorescence intensity (a.u.)
AAGATCCACCCGCCCGACCAGGTTTCGTTTCGATTTTTCTCGGAGTCACCTAGTGCAG | 12300 fluorescence intensity (a.u.)
AGTTTCTTCCCTTCGTCCTCGTCTCCTCGACCTCACCACCCGGAGTCACCTAGTGCAG | 9770 fluorescence intensity (a.u.)
GAAGAAATAAAGCTTCCACTCGCTCATACTTTCTGTGTTCCGGAGTCACCTAGTGCAG | 10100 fluorescence intensity (a.u.)
GACGGACGATCGGTTCCCCATTTCGCTCCCATCGATCCCTCGGAGTCACCTAGTGCAG | 8220 fluorescence intensity (a.u.)
TAATACACTAGCCCCAATGTTTGTTTGCCTAATCTACTCTCGGAGTCACCTAGTGCAG | 9080 fluorescence intensity (a.u.)
CGTGCTTATTTGATGTGGCGTTTGGGCCTTGGTTTAACCGCGGAGTCACCTAGTGCAG | 9120 fluorescence intensity (a.u.)
CTCCGTTATACGCGGGCACACTGTTAGTTGCTCCATTTTGCGGAGTCACCTAGTGCAG | 8330 fluorescence intensity (a.u.)
AATGTCGTGGCCTTTTATGGTGTTGTTCTTGATGGACCTGCGGAGTCACCTAGTGCAG | 8160 fluorescence intensity (a.u.)
GACTTGTAAACTACGGTCTATTTCTTCACCTGCAATAATACGGAGTCACCTAGTGCAG | 8900 fluorescence intensity (a.u.)
AATACTATTTTGGTTCTTTTTGGTTGCTAGAAATATATTTCGGAGTCACCTAGTGCAG | 8860 fluorescence intensity (a.u.)
TGTCTATATCTGGTCCTGGTACATCATTGCACTTTATGTTCGGAGTCACCTAGTGCAG | 8880 fluorescence intensity (a.u.)
CAACGGACAACCATCTCCCATACCGCGAACAGAGACAACTCGGAGTCACCTAGTGCAG | 10200 fluorescence intensity (a.u.)

In another format: entries from further up.
Sequence	binding signal
ACAATACCTGCTAGCTCATCTCCATCCTCTCTCACCACCACGGAGTCACCTAGTGCAG	8530 fluorescence intensity (a.u.)
AGGGGTATGTTTAGTTTGCGTCAAAATTGGAAGTTTTGTTCGGAGTCACCTAGTGCAG	9040 fluorescence intensity (a.u.)

More records follow.

Sequence | binding signal
ATGGAGTAATATTTCTCACCCCTTTTTCCCATGGTCACACCGGAGTCACCTAGTGCAG | 8260 fluorescence intensity (a.u.)
TTAATACTCCAAATCGCTCAGTTCTTTTCTCATGATGATACGGAGTCACCTAGTGCAG | 9220 fluorescence intensity (a.u.)
TGCTTGACTGTGAGTACTGTTTGGGAGGGAGAGTGGTAAACGGAGTCACCTAGTGCAG | 9540 fluorescence intensity (a.u.)
CTCCACTACTTGCATTGTTTATCTGCGTCATCGTTTCCTTCGGAGTCACCTAGTGCAG | 9110 fluorescence intensity (a.u.)
TGGGTGTGGGTACGGAGAGTGGAAACCCGTTGGGTCCATACGGAGTCACCTAGTGCAG | 8320 fluorescence intensity (a.u.)
AGTTATTACTAATACAGTACTCTCCCTTTTGCTCTATCTTCGGAGTCACCTAGTGCAG | 12800 fluorescence intensity (a.u.)
ATTATTTGCCTTTCTTGTTGGAATTTATTTATTTTCAGCTCGGAGTCACCTAGTGCAG | 9290 fluorescence intensity (a.u.)
CTGTCCTCTATCGATTGTTCTGACTTGGGTCACCATGTAACGGAGTCACCTAGTGCAG | 8990 fluorescence intensity (a.u.)
TTTTTACCTATACTGTCTATTGTTTTCTATGTCTCTCCCTCGGAGTCACCTAGTGCAG | 9360 fluorescence intensity (a.u.)
TTTACTCATGATTACGCTAATTATTCCACTCAATTCTCACCGGAGTCACCTAGTGCAG | 9120 fluorescence intensity (a.u.)
TATATCACATTTAATTATTTTTCCCATGTTCTTGTTTTAACGGAGTCACCTAGTGCAG | 9480 fluorescence intensity (a.u.)
TAATATATCACTCATCCCGTATCCTATCCCATATTATTTCCGGAGTCACCTAGTGCAG | 8830 fluorescence intensity (a.u.)
ATAACTCGGGTCGGACTCGGACCTCAGGCCCACGTATTCCCGGAGTCACCTAGTGCAG | 8400 fluorescence intensity (a.u.)
CTCCCGGAGCTCGGCCGCCTCTTCACCTCCGACACCCGCGCGGAGTCACCTAGTGCAG | 8300 fluorescence intensity (a.u.)
AGTACACTTTCTGATGCATTGTACCTTGAGTTTTAGGATGCGGAGTCACCTAGTGCAG | 8460 fluorescence intensity (a.u.)
ACCCCAGCAACCAACCTCTCGTCTCCGCCGCTTCGCCCTCCGGAGTCACCTAGTGCAG | 15500 fluorescence intensity (a.u.)
TGGACTCTTCTTTTCTTTTTTTTTCTTTTTCTCCGATTAACGGAGTCACCTAGTGCAG | 9490 fluorescence intensity (a.u.)
GCCCATGAGCTTGCCTCGTCTCCGGCGGCTACGCGCTGCCCGGAGTCACCTAGTGCAG | 8590 fluorescence intensity (a.u.)
TGCGGATAGACTTCCACAACTGCCATGTCACCGCGATGTTCGGAGTCACCTAGTGCAG | 8390 fluorescence intensity (a.u.)
TTGTTTCTGTTTCAGGTATGAGGTCATCATTCTCCAGTATCGGAGTCACCTAGTGCAG | 8240 fluorescence intensity (a.u.)
CTCTGCCCGGACGCCTACAGCTACCCCAAGGACGACCAGACGGAGTCACCTAGTGCAG | 9390 fluorescence intensity (a.u.)
